Experimental data as given in the supplement of paper PMC12889115.
The list shows a part of the results. Values are raw readings; no control value is given beside them.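 First-pass screen: polymyxin B was added at a level that permeabilizes the Salmonella outer membrane while sparing the inner membrane. DMSO wells, with and without polymyxin B, defined maximum growth. Because plates differed from one another, each plate's data were ranked separately and the compounds with the lowest OD600 were carried forward as hits.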

Tested on: Salmonella enterica serovar Typhimurium SL1344
Assay: bacterial growth OD600 after 18 h with compound and polymyxin B; higher = more bacterial growth (less inhibition)
Conditions: 50 µM, Mueller-Hinton broth

Structure (SMILES) | bacterial growth OD600 (polymyxin B 0.75 µg/mL) | bacterial growth OD600 (polymyxin B 1 µg/mL)
COC(=O)CCC(=O)N1CCC(C2CCN(Cc3ccc(Cl)cc3)C2)CC1 (stereo unspecified) | 0.751 | –
Cc1c[nH]c(CN(C)C(=O)CC(c2cccc(O)c2)c2cccc(Cl)c2)n1 (stereo unspecified) | – | 0.712
CC(C)CCNC(=O)c1cn(C2CCCC2)cc(C(=O)N2CCN(C(C)C)CC2)c1=O | 0.866 | –
O=C(c1n[nH]c2c1CCC2)N1CCc2[nH]nc(-c3ccccc3F)c2C1 | 0.783 | –
COc1ccccc1CN1CCCC(CN(CCN(C)C)C(=O)c2cccnc2)C1 (stereo unspecified) | – | 1.02
CN(CCc1ccccn1)c1ccc(C(=O)N2CCCC(Cn3ccnc3)C2)cn1 (stereo unspecified) | 0.857 | –
CCCc1cc(C(=O)NCc2cccnc2N2CCCC(O)C2)n(C)n1 (stereo unspecified) | 0.749 | –
CCCN(CC1CCCO1)C(=O)CC1(c2ccccc2)CC(=O)N(Cc2cccs2)C1=O (stereo unspecified) | 0.79 | –
Cc1ccsc1S(=O)(=O)N1CCCC(CNS(=O)(=O)Cc2ccccc2)C1 (stereo unspecified) | – | 0.87
COC(=O)c1ccc(-c2nc(CN3CCCCC3CCn3cccn3)c(C)o2)cc1 (stereo unspecified) | – | 0.852
O=C(NCc1nnc(-c2ccccc2)o1)C1CCC(=O)N(CCc2cccc(F)c2)C1 (stereo unspecified) | – | 0.909
COCCC1CCCCN1C(=O)c1coc(COc2ccc(F)cc2)n1 (stereo unspecified) | – | 0.964
CCn1ccnc1CN1CCCC(CNS(=O)(=O)Cc2ccccc2)C1 (stereo unspecified) | 0.782 | –
CCN(CC1CCCN(CCc2cccc(F)c2)C1)C(=O)Cn1ccnc1 (stereo unspecified) | 0.967 | –
CCCn1c(C)c(CC(=O)N(CC)CC)c2c1CC(C)(C)CC2=O | 0.904 | –
CSCC(=O)NC1CC(C)(C)Cc2nc(N3CCOCC3)ncc21 (stereo unspecified) | 0.867 | –

Structure (SMILES) | bacterial growth OD600 (polymyxin B 0.75 µg/mL) | bacterial growth OD600 (polymyxin B 1 µg/mL)
CCN(CC1CCN(CCc2ccccc2C)CC1)C(=O)c1ccoc1C | – | 1.19
Cc1[nH]c2ccc(C(=O)N3CCC(C(Cc4ccc(F)cc4F)N(C)C(=O)C4CC4)CC3)cc2c1C (stereo unspecified) | 0.006 | –
CCN1CCN(C2(C(=O)NC(C)Cc3cnccn3)Cc3ccccc3C2)CC1 (stereo unspecified) | 0.877 | –
Clc1ccc(N2CCC(NC3COc4ccccc4C3)CC2)cc1 (stereo unspecified) | – | 1.06
CC(C)C[C@H](NC(=O)C1(N2C[C@@H](C)O[C@@H](C)C2)Cc2ccccc2C1)C(N)=O | 0.736 | –
COCCNC(=O)c1ccc(OC)cc1OC1CCN(CC2CCOC(C)(C)C2)CC1 (stereo unspecified) | – | 0.965
Cc1nc2ccccc2n1Cc1cc(C(=O)NC2CCCC2)no1 | 0.726 | –
COc1ccc(-c2nn(-c3ccccc3)cc2CN2CCOCC2)c(F)c1 | – | 0.745
CCn1ncc(CN2CCCC2C(=O)Nc2ccc(-c3cscn3)cc2)c1C (stereo unspecified) | 0.856 | –
CC(=O)c1cccc(OCc2cc(C(=O)N(C)Cc3cc(C)[nH]n3)n[nH]2)c1 | – | 0.998
CN(CCCN1CCOCC1)C(=O)CC1(c2cccc(F)c2)CC(=O)N(Cc2cccnc2)C1=O (stereo unspecified) | 0.79 | –
CCOc1cc(CN2CCC(C3(Cc4cccc(OC)c4)NC(=O)N(C)C3=O)CC2)ccc1O (stereo unspecified) | 0.798 | –
C#Cc1ccc(CNC(C)c2cnc(-c3ccncc3)nc2C)cc1 (stereo unspecified) | 0.8 | –
COc1ccc(CCCN2C(=O)O[C@@H]3CN(S(=O)(=O)N(C)C)C[C@@H]32)cc1 | – | 0.914
COc1ccc(C(=O)NC2CC2)c(OC2CCN(Cc3cccs3)CC2)c1 | 0.832 | –
